Record: PubChem BioAssay AID504804 (Drosophila RNAi Screening Center, 2011)

- Purpose: 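dsRNAs that improve Kc cell survival under doxorubicin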 (primary screen)
- System: Drosophila Kc cells
- Reagent: long dsRNA against Drosophila genes, 0.5 µg dsRNA per well
- Duration: 96 h (48 h knock-down, then 48 h drug)
- Conditions: doxorubicin 5 µg/ml for 48 h, added 48 h after dsRNA
- Measured: 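Luminescent ATP counts per replicate, not normalised, reflecting viable cells after 48 h dsRNA knock-down followed by 48 h of 5 µg/ml doxorubicin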
- Scale: raw ATP luminescence: higher = more viable cells, protection from doxorubicin
- Hit rule: 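Active when both duplicate wells lie at least 2 SD above the plate mean and protection is confirmed by rescreening and independent dsRNAs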
In all, the deposit lists about 19,000 reagents; below is a random part of those with a known target gene and a result. In the full data, 47 (0.25%) were called active. 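Signals are raw, not normalised; exact z-scores behind calls not deposited; actives needed confirmation, so some wells reaching 2 SD are inactive.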 Entries without a mark were called inactive. Names joined by + are all predicted targets of the reagent.

| gene | amplicon | raw ATP luminescence, replicate 1 | raw ATP luminescence, replicate 2 |
| --- | --- | --- | --- |
| CG5399 | DRSC15791 | 63690 | 57450 |
| CG7631 | DRSC01873 | 64200 | 70550 |
| CG6230 | DRSC01989 | 1.14e5 | 72297 |
| CG5641 | DRSC15852 | 50040 | 27270 |
| Crtp (Caldesmon-related protein) | DRSC04604 | 55797 | 48410 |
| tbrd-1 | DRSC14601 | 71970 | 60560 |
| CG32651 | DRSC18941 | 1.64e5 | 1.98e5 |
| CG12935 + Nop10 | DRSC07025 | 45523 | 81930 |
| CG17027 | DRSC10238 | 21480 | 31130 |
| Taf6 (TBP-associated factor 6) | DRSC11299 | 22753 | 22070 |
| CG9861 | DRSC04576 | 92220 | 88870 |
| spn-A (spindle A) | DRSC16812 | 59720 | 62360 |
| Meics (Meiotic central spindle) | DRSC11413 | 74260 | 51677 |
| CG13970 | DRSC02311 | 56067 | 68503 |
| Ptip (PAX transcription activation domain interacting protein) | DRSC10660 | 72777 | 42077 |
| Ptip (PAX transcription activation domain interacting protein) | DRSC11048 | 59690 | 37790 |
| Dif (Dorsal-related immunity factor) | DRSC03316 | 81717 | 81150 |
| Pis (Phosphatidylinositol synthase) | DRSC20178 | 3.75e5 | 3.24e5 |
| az2 | DRSC07580 | 57833 | 69093 |
| CG31437 | DRSC13711 | 2.79e5 | 2.74e5 |
| rdgB (retinal degeneration B) | DRSC20365 | 1.51e5 | 1.79e5 |
| Secp43 (tRNA Selenocysteine associated protein) | DRSC00454 | 26660 | 27913 |
| Rad60 | DRSC15580 | 72960 | 68860 |
| mus301 (mutagen-sensitive 301) | DRSC10939 | 68623 | 70997 |
| Adgf-D (Adenosine deaminase-related growth factor D) | DRSC16521 | 74680 | 96090 |
| Top1 (Topoisomerase 1) | DRSC20295 | 2.48e5 | 2.73e5 |
| CG32855 | DRSC13131 | 2.45e5 | 2.57e5 |
| Cht6 (Chitinase 6) | DRSC18001 | 3.81e5 | 3.10e5 |
| Cht6 (Chitinase 6) | DRSC18002 | 1.45e5 | 1.59e5 |
| Cht6 (Chitinase 6) | DRSC18253 | 4.10e5 | 3.85e5 |
| pippin | DRSC04489 | 61027 | 80107 |
| Syp (Syncrip) | DRSC13444 | 2.23e5 | 2.40e5 |
| Syp (Syncrip) | DRSC15286 | 43633 | 51393 |
| CG16863 | DRSC01892 | 77110 | 69840 |
| Gr98a (Gustatory receptor 98a) | DRSC14719 | 1.94e5 | 2.15e5 |
| Pak (p21-activated kinase) | DRSC12602 | 65773 | 26933 |
| CAH5 (Carbonic anhydrase 5) | DRSC15372 | 59700 | 55480 |
| nonC (no-on-and-no-off transient C) | DRSC18367 | 32330 | 41310 |
| CG14118 | DRSC10122 | 91203 | 80077 |
| mdu (meduse) | DRSC19860 | 1.02e5 | 1.98e5 |
| Paris (Parkin Interacting Substrate) | DRSC00451 | 1.25e5 | 1.06e5 |
| Argp (Arginine phosphatase) | DRSC16510 | 66590 | 89620 |
| CG4631 | DRSC02766 | 42747 | 66003 |
| wrapper | DRSC04723 | 64280 | 75343 |
| Eig71Ea (Ecdysone-induced gene 71Ea) | DRSC11148 | 71167 | 61933 |
| CG42382 | DRSC07671 | 52673 | 65510 |
| kappaB-Ras + CG30503 | DRSC06619 | 37657 | 76193 |
| kappaB-Ras + CG30503 | DRSC07636 | 39657 | 71393 |
| Scp2 (Sarcoplasmic calcium-binding protein 2) | DRSC13166 | 1.77e5 | 1.82e5 |
| Scp2 (Sarcoplasmic calcium-binding protein 2) | DRSC16854 | 1.24e5 | 64390 |
| alpha-Est4aPsi (pseudo) | DRSC12473 | 74943 | 59487 |
| lectin-37Db | DRSC03279 | 69707 | 59917 |
| CG8543 | DRSC10990 | 87083 | 83240 |
| Lcp65APsi (pseudo) | DRSC08795 | 1.24e5 | 97663 |
| Lcp65APsi (pseudo) | DRSC10342 | 84780 | 73450 |
| clumsy | DRSC03111 | 63333 | 60057 |
| CG3777 | DRSC18489 | 1.50e5 | 2.15e5 |
| Ir94g (Ionotropic receptor 94g) | DRSC15231 | 63280 | 60730 |
| CG34320 (retired record) | DRSC17682 | 2.12e5 | 2.08e5 |
| CG5681 | DRSC02876 | 65263 | 75550 |
| cno (canoe) | DRSC12054 | 59990 | 53280 |
| cno (canoe) | DRSC12374 | 15537 | 14680 |
| D19A | DRSC11133 | 28280 | 26510 |
| emb (embargoed) | DRSC03528 | 1.19e5 | 64660 |
| CG15550 | DRSC15088 | 55970 | 36510 |
| Toll-6 | DRSC11304 | 77127 | 51943 |
| CG17776 | DRSC18136 | 47360 | 67730 |
| CG9948 | DRSC11104 | 41487 | 41453 |
| NK7.1 | DRSC16755 | 48810 | 26540 |
| CG13028 | DRSC09908 | 95473 | 38497 |
| Hakai | DRSC02031 | 1.10e5 | 76193 |
| Nacalpha (Nascent polypeptide associated complex protein alpha subunit) | DRSC07477 | 70800 | 54067 |
| Prosalpha3 (Proteasome alpha3 subunit) | DRSC04644 | 52330 | 46470 |
| Rbp6 (RNA-binding protein 6) | DRSC09462 | 70237 | 79640 |
| Rbp6 (RNA-binding protein 6) | DRSC09464 | 85057 | 93683 |
| Rbp6 (RNA-binding protein 6) | DRSC10072 | 53697 | 34350 |
| Rbp6 (RNA-binding protein 6) | DRSC10073 | 55550 | 28617 |
| Rbp6 (RNA-binding protein 6) | DRSC10662 | 46030 | 34033 |
| CG31344 | DRSC16069 | 98690 | 78030 |
| CG30419 | DRSC04208 | 77080 | 59813 |
| CG30419 | DRSC04209 | 58313 | 50453 |
| Pfdn2 (Prefoldin 2) | DRSC10618 | 88770 | 63840 |
| hoip (hoi-polloi) | DRSC03546 | 15607 | 18497 |
| CG15919 | DRSC06594 | 1.35e5 | 1.84e5 |
